Assay: peptide synthesis
Conditions: whole synthesis, RP-HPLC

Substance: KWKSFIKKLTSKFLHSAKKF-NH2
- final HPLC purity: 92.3%

Source: article PMC3299254 (International Journal of Microbiology, 2012)
